Test results: article PMC3958483, “Fine Specificity and Molecular Competition in SLAM Family Receptor Signalling” (PLoS ONE, 2014)

Tested on: NK92 cells
Experiment: Quantitation of protein in NK92 cells by western blotting
Parameters: species or system human
Conditions: for protein expressed by 1×10^6 NK92 cells: Figure 4, representative blot, per 1×10^6 NK92 cells; for Mean (ng)/10^6 cells / Mass (ng)/10^6 cells: per 10^6 NK92 cells; for Mean (ng)/10^6 cells: n = 3 (SAP, EAT-2), n = 2 (SHP-2)
[1] = replicate 3 (third value printed)

B1: SAP: small SH2 domain containing adapter protein (protein, UniProt O60880 1-128, looked up)
SH2 domain-containing protein …: MDAVAVYHGKISRETGEKLLLATGLDGSYLLRDSESVPGVYCLCVLYHGYIYTYRVSQTETGSWSAETAPGVHKRYFRKIKNLISAFQKPDQGIVIPLQYPVEKKSSARSTQGTTGIREDPDVCLKAP
Question: Which “protein expressed by 1×10^6 NK92 cells” value does the source give for B1 here?
Answer: 30 ng

Question: And the “SAP concentration higher than EAT-2” value (NK92 cells)?
Answer: four

Question: What about the “Mean (ng)/10^6 cells” value of the same molecule?
Answer: 28 ng

Question: And the “Mass (ng)/10^6 cells” value (replicate 2)?
Answer: 30 ng

Question: And the “Mass (ng)/10^6 cells” value [1]?
Answer: 33 ng

B2: EAT-2: small SH2 domain containing adapter protein (protein)
chain: MDLPYYHGRLTKQDCETLLLKEGVDGNFLLRDSESIPGVLCLCVSFKNIVYTYRIFREKHGYYRIQTAEGSPKQVFPSLKELISKFEKPNQGMVVHLLKPIKRTSPSLRWRGLKLELETFVNSNSDYVDVLP
modifications: left off: His tag, end not stated, state not stated
notes: small SH2 domain containing adapter protein
Question: What does the source list for B2?
Answer: protein expressed by 1×10^6 NK92 cells: 7 ng; cellular concentration compared with KD (NK92 cells): two orders of magnitude above the KD; Mean (ng)/10^6 cells: 7 ng; Mass (ng)/10^6 cells (replicate 1 (first value)): 5 ng; Mass (ng)/10^6 cells (replicate 2): 8 ng; Mass (ng)/10^6 cells [1]: 9 ng
